# Data published in paper PMC6728143.
# Sequences of proteins named here, by UniProt entry; tags and fusion partners are left off. A change or cut given only in a name is not applied to a line headed by its entry.
# UniProt P05455: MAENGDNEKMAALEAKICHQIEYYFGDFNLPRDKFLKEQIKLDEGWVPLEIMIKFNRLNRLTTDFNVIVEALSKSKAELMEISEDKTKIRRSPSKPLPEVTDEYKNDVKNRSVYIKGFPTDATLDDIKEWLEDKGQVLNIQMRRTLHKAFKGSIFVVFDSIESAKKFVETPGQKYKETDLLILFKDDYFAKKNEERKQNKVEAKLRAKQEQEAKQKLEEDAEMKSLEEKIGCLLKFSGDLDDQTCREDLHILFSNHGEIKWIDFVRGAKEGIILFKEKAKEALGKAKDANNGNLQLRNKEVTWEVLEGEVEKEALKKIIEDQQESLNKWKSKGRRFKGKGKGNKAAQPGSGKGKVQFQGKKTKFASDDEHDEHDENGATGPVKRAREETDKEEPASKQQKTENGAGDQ
# The exact form of at least one protein or probe is not confirmed. At least one verdict rests on a figure or table, not on a statement of the authors.
# Biological target: Lupus La protein (La) (Homo sapiens) (UniProt P05455)
# Assay: EMSA
# Details: positive control for binding per legend; EMSA: 1 nM RNA, La 250 pM-2 uM; 25 mM Tris pH 8, 100 mM KCl, 1.5 mM MgCl2, 0.2 mM EGTA, 0.05% NP-40, 50 ug/ml heparin; 30 C 30 min, then ice 10 min; 6% gel at 4 C; recombinant protein; protein details: N-terminal 6xHis; label: 5' IRDye800CW
sequence,measurement,value
UUUUUUUUUUUUUUUUUUUUUU [22 nt poly-uridine],binding result,binds
